For 61 compounds, AC50 results are on record in PubChem BioAssay AID493014 (National Center for Advancing Translational Sciences (NCATS), 2011).

Several values for one entry are separate records, joined by “and”; a condition that tells them apart may be missing. Equal entries are not always repeated. This is one part of the list. Further columns of the screen follow, without active or inactive calls. The list favours compounds with an active or inconclusive main result. Potencies come from curve fits of mixed quality, noted in brackets.

The nature of this experiment: qHTS Assay to Find Inhibitors of Chronic Active B-Cell Receptor Signaling. The note with it: ABC-DLBCL IkBa-CBG/CBR reporter, luminescence ratio (green luciferase fused to IkBa over red control in TMD8 lymphoma cells), 4 h. In a few lines: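 TMD8 ABC-DLBCL cells carrying doxycycline-inducible green luciferase fused to IkappaBalpha plus unfused red luciferase were exposed to compounds (up to 46 uM) for 4 hrs at 37C. Activity came from the overlap-corrected green/red luminescence ratio.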

Setting [1] is: measured here: CBR red luminescence, cell number.
Setting [2] is: measured here: IkBa-CBG green luminescence.

Regarding `O=C(Nc1ccccc1Cl)C(=O)c1cn(CC(=O)N2CCOCC2)c2ccccc12`, under setting [1], the AC50 was 0.282 µM [falling, full curve, poor fit].
Same read-out and setting: next, `O=C(CSCc1ccccc1)Nc1cccc(C(=O)Nc2ccccc2C(=O)O)c1`: 35.5 µM [falling, single point]; `COC(=O)[C@@]1(Cc2ccc(F)cc2)[C@H]2c3cc(C(=O)N(C)C)n(Cc4ccc(OC(F)(F)F)cc4)c3C[C@H]2CN1C(=O)c1ccccc1`: 23.1 µM [falling, single point].
Still for that read-out and setting: next, `CCCCOc1ccc(C(C)NC(=O)CN2C(=O)CSc3ccc(S(=O)(=O)N4CCOCC4)cc32)cc1` (stereo not drawn): 0.562 µM [rising, full curve, poor fit]; `CN(C)S(=O)(=O)c1ccc(C(=O)Nc2cccnc2)cc1`: 9.2 µM [rising, single point].
As to `CN(C(=O)c1ccccc1C(=O)OCC(=O)NC(=O)NC(C)(C)C)C1CCCCC1`, under setting [1], the AC50 was 35.5 µM [rising, single point].
On to `CSCCC(NC(=O)c1ccc(Cl)cc1)C(=O)OCC(=O)c1ccc[nH]1` (stereo not drawn), for which the AC50 under setting [1] is 20.6 µM [rising, partial curve, poor fit].
On the same count and under the same terms, then `COc1ccc(C(=O)OCC(=O)N2CCc3ccccc3C2)cc1OC`, with 23.1 µM [rising, single point]; and `CCOC(=O)c1ccc(C(=O)NNC(=O)C2C3C=CC(C3)C2C(=O)O)cc1` (stereo not drawn), with 5.01 µM [falling, full curve, poor fit]; and `Cc1ccc(-n2cccc2/C=C2/NC(=O)N(CC(=O)Nc3cccc(C)c3)C2=O)cc1`, with 32.6 µM [rising, partial curve, poor fit].
Still for that read-out and setting: then `Cc1ccc2oc(C(=O)N(C)CCC(O)c3ccccc3)c(C)c2c1` (stereo not drawn), with 3.98 µM [rising, partial curve, poor fit].
Turning to `Cc1cccc(CNc2ncnc3ccc(-c4ccc5c(c4)OCO5)cc23)c1`, the AC50 under setting [1] is 20.6 µM [falling, partial curve, poor fit] and 14.6 µM [falling, partial curve].
On to `CC1Cc2nc(SCC(=O)Nc3nc4ccccc4s3)n(C)c(=O)c2S1` (stereo not drawn), for which the AC50 under setting [1] was 32.6 µM [falling, single point].
On the same count and under the same terms, next, `CCOc1ccc(CCNC(=O)CCc2nc(-c3ccc(OC)cc3)no2)cc1OCC`: 20.6 µM [rising, single point]; `COc1ccccc1/C=N/n1c(N)c(S(=O)(=O)c2cccs2)c2nc3ccccc3nc21`: 32.6 µM [rising, single point].
With `Fc1ccc2[nH]c3c(N4CCN(Cc5ccc6c(c5)OCO6)CC4)ncnc3c2c1`, the AC50 under setting [1] is 35.5 µM [falling, single point].
Same read-out and setting: then `Fc1ccc(-c2csc(/C=C/c3ccc4c(c3)OCO4)n2)cc1`, with 0.326 µM [rising, full curve, poor fit].
Still for that read-out and setting: then `O=C1COc2ccccc2N1Cc1c(F)cccc1Cl`, with 20 µM [rising, partial curve, poor fit]; and `O=C(COc1ccccc1)Nc1cccc2c1CCCC2`, with 3.98 µM [rising, partial curve, poor fit].
Still for that read-out and setting: then `COc1ccccc1NC(=O)Cn1cc(C#N)c2ccccc21`, with 3.26 µM [falling, single point]; and `O=C(N/N=C/c1cn(-c2ccccc2)nc1-c1cc2ccccc2o1)c1ccccc1Br`, with 0.651 µM [rising, full curve, poor fit].
Consider `Cc1cccc(C(=O)Nc2cccc(C(=O)N/N=C/c3ccc4c(c3)OCO4)c2)c1`, for which, under setting [1], the AC50 was 3.16 µM [falling, partial curve].
Still for that read-out and setting: next, `CSC1=NCCN1C(=O)C12CC3CC(CC(C3)C1)C2`: 5.62 µM [falling, single point]; `CC1(C)C(C#N)=C(N)Oc2c1c(=O)oc1ccccc21`: 0.562 µM [falling, full curve, poor fit]; `O=C(NCCCCc1ccccc1)c1ccc(Br)cc1`: 3.55 µM [rising, full curve].
On the same count and under the same terms, then `CCN1CCN(C(=S)Nc2ccc([N+](=O)[O-])cc2)CC1`, with 18.4 µM [rising, single point]; and `CC1CC(=O)c2cnc(Nc3ccccc3)nc2C1` (stereo not drawn), with 11.6 µM [falling, partial curve].
As to `COc1ccc(NC(=O)C(Sc2nnc(-c3ccncc3)n2-c2ccccc2C)c2ccccc2)cc1Cl` (stereo not drawn), under setting [1], the AC50 is 14.6 µM [rising, single point].
On the same count and under the same terms, next, `CCc1ccc(C(=O)CSc2nc(C)cc(=O)[nH]2)cc1`: 3.98 µM [rising, full curve, poor fit]; `CC(=O)N1CCc2c(sc(NC(=O)C3CCCN3S(=O)(=O)c3cccs3)c2C#N)C1` (stereo not drawn): 20.6 µM [rising, partial curve, poor fit]; `COc1ccc([N+](=O)[O-])cc1NS(=O)(=O)c1cc(C(=O)NCc2cccnc2)ccc1Cl`: 29.1 µM [rising, partial curve, poor fit].
The same measure, in the same setting: then `COc1ccc(C2c3c(oc4ccccc4c3=O)C(=O)N2c2ccc(C)cn2)cc1OC` (stereo not drawn), with 4.11 µM [rising, partial curve, poor fit]; and `COc1cc2cnc(-c3ccccc3)c(C(=O)c3ccc(OCc4ccccc4)cc3)c2cc1OC`, with 6.51 µM [rising, partial curve, poor fit].
For `Cc1c(C(=O)Nc2ccc3c(c2)OCCO3)sc2nc(-c3ccccc3)cn12`, the AC50 reads like this: under setting [1], 29.1 µM [falling, single point]; under setting [2], 11.6 µM [rising, partial curve, poor fit].
As to `Cc1cccc(N2CCN(C(=O)c3ccc4nc(-c5ccco5)c(-c5ccco5)nc4c3)CC2C)c1` (stereo not drawn), under setting [1], the AC50 is 12.6 µM [falling, partial curve, poor fit].
As for `O=C(NCCCC1CCCC1)C1CCC(=O)N(Cc2cccc(C(F)(F)F)c2)C1` (stereo not drawn), the AC50 under setting [1] is 11.2 µM [falling, partial curve].
Consider `O=C(N/N=C/c1cccs1)c1n[nH]c2c1CCCC2`, for which, under setting [1], the AC50 is 4.47 µM [falling, partial curve].
Same read-out and setting: then `Cc1cccc(/C=N\N=C\c2cccc(C)c2)c1`, with 11.2 µM [rising, partial curve, poor fit]; and `Clc1cccc(-n2ncc3c(NC4CCCCC4)ncnc32)c1`, with 12.6 µM [falling, partial curve, poor fit].
Still for that read-out and setting: next, `COc1cccc(/C=C/C(=O)Nc2ccc3c(c2)OCCO3)c1`: 6.31 µM [falling, partial curve, poor fit].
The same measure, in the same setting: then `O=C(O)c1cc(N2N=C(C(F)(F)F)/C(=C/C=C/c3ccco3)C2=O)ccc1Cl`, with 0.126 µM [rising, full curve, poor fit]; and `COc1cc(C(=O)N/N=C/c2ccc(OC(=O)c3ccccc3)c(OC)c2)ccc1O`, with 7.08 µM [falling, partial curve, poor fit].
For `CC(C)CCOc1ccc(C(=O)NCC(c2cccs2)N2CCOCC2)cc1` (stereo not drawn), under setting [1], the AC50 is 23.1 µM [rising, partial curve, poor fit].
Regarding `O=C(COc1ccc2c3c(c(=O)oc2c1)CCC3)NC1CCCCC1`, the AC50 under setting [1] was 0.1 µM [rising, full curve, poor fit].
Regarding `O=C(Nc1ccccc1Oc1ccccc1)c1ccccc1F`, the AC50 under setting [1] was 20.6 µM [rising, partial curve].
Same read-out and setting: then `CC(C(=O)OCc1nnc(-c2ccccc2)o1)N1C(=O)C2CCCCC2C1=O` (stereo not drawn), with 22.4 µM [falling, single point]; and `COc1ccc(CCNC(=O)CN(c2ccccc2OC)S(=O)(=O)c2ccc(C)cc2)cc1`, with 22.4 µM [falling, partial curve, poor fit]; and `CN(C)c1ccc(-c2nn3c(C4CCCCC4)nnc3s2)cc1`, with 6.51 µM [rising, full curve, poor fit].
The same measure, in the same setting: then `CCC(=O)Nc1nc(C)c(C(=O)Nc2cccc(Cl)c2)s1`, with 10 µM [falling, partial curve, poor fit].
The same measure, in the same setting: then `COc1ccc(OCC(O)Cn2c(=N)n(Cc3ccccc3)c3ccccc32)cc1` (stereo not drawn), with 29.1 µM [falling, single point]; and `O=C(Nc1ccc(Cl)cc1)N1CC=CCC1`, with 14.1 µM [falling, single point]; and `c1ccc(-n2nnnc2NC2CCCCC2)cc1`, with 32.6 µM [falling, partial curve, poor fit].
`CCOC(=O)/C=C/C(=O)OCC(=O)Nc1cccc(Cl)c1Cl`: under setting [1], the AC50 is 10 µM [falling, partial curve].
As to `COC(=O)C1=C(C)N=C2SC(C#N)=C(N)N2C1c1cccc(OC)c1` (stereo not drawn), under setting [1], the AC50 was 0.164 µM [falling, full curve, poor fit].
Still for that read-out and setting: then `NNC(=O)C(=O)Nc1ccc(O)cc1`, with 2 µM [falling, full curve].
The same measure, in the same setting: next, `CC(C)c1ccc(CN2CCN(C(=O)CCl)CC2)cc1`: 12.6 µM [falling, partial curve, poor fit]; `O=C(c1cc2cc(Br)ccc2oc1=O)N1CCCC1`: 2.06 µM [rising, partial curve, poor fit].
Same read-out and setting: then `COc1ccc(O)c(/C=N/NC(=S)NCCc2ccccc2)c1`, with 15.8 µM [falling, partial curve, poor fit].
As for `CCOC(=O)c1[nH]c2ccccc2c1NC(=O)COC`, the AC50 under setting [1] was 4.11 µM [falling, partial curve, poor fit].
Turning to `CCOC(=O)C1=C(C)NC2=C(C(=O)C(C(=O)OCC)C(c3ccco3)C2)C1c1ccccn1` (stereo not drawn), the AC50 is, setting by setting: under setting [1], 6.51 µM [falling, single point]; under setting [2], 6.51 µM [rising, partial curve, poor fit].
As to `COc1ccc(C(=O)Oc2cccc(/C=N/NC(N)=S)c2)cc1`, under setting [1], the AC50 is 23.1 µM [falling, partial curve, poor fit].
